Patent US20120178769A1, “NOVEL COMPOUNDS FOR INHIBITING EEF-2 KINASE ACTIVITY” (The University of Medicine and Dentistry, priority 2009, published 2012)

Target: eEF2 kinase (Homo sapiens, UniProt O00418)
Assay: eEF2 kinase activity assay with purified eEF2 (33P-ATP, SDS-PAGE, autoradiography)
Type: biochemical
Conditions: purified eEF2, FIG. 1
Procedure: FIG. 1 illustrates eEF2 kinase activity assay with purified eEF2 and with different concentration of identified inhibitors.
FIG. 1 illustrates eEF2 kinase activity assay with purified eEF2 and with different concentration of identified inhibitors. Recombinant eEF2 kinase (0.5 μg) was incubated with purified rabbit reticulocyte eEF2 (0.5 μg) in a reaction mixture consisting of 50 mM Hepes-KOH pH 6.6, 10 mM magnesium acetate, 5 mM DTT, 100 μM CaCl2, 0.5 μg calmodulin, 50 μM ATP, and 0.2 μCi [γ-^33P]-ATP (3000 Ci/mmol). The reactions were run at 30° C. for 15 minutes, and were terminated by incubation in an ice/water bath and addition of Laemmli sample buffer. Samples were analyzed by SDS-PAGE and autoradiography.

CCCCCCCCCCCCCCCCn1cc[n+](-c2ccccc2)c1 [L-207]
inhibition of eEF2 kinase in vitro: specific inhibitors of eEF2 kinasae

CCCCCCCCCCCCCCCCN1C2=NCCCN2c2ccccc21 [L-587]
inhibition of eEF2 kinase in vitro: specific inhibitors of eEF2 kinasae
